Cleaved PARP in drug-treated melanoma cells

Values as published with doi:10.1371/journal.pone.0140310, rounded.

Compounds and concentrations:
bexarotene (10 µM): C=C(c1ccc(C(=O)O)cc1)c1cc2c(cc1C)C(C)(C)CCC2(C)C
lestaurtinib (0.02 µM): C[C@]12O[C@H](C[C@]1(O)CO)n1c3ccccc3c3c4c(c5c6ccccc6n2c5c31)CNC4=O
YM155 (0.002 µM): COCC[n+]1c2c(n(Cc3cnccn3)c1C)C(=O)c1ccccc1C2=O
cediranib (2 µM): COc1cc2c(Oc3ccc4[nH]c(C)cc4c3F)ncnc2cc1OCCCN1CCCC1
ENMD-2076 (0.2 µM): Cc1cc(Nc2cc(N3CCN(C)CC3)nc(/C=C/c3ccccc3)n2)n[nH]1
crizotinib (1 µM): C[C@@H](Oc1cc(-c2cnn(C3CCNCC3)c2)cnc1N)c1c(Cl)ccc(F)c1Cl
vatalanib (10 µM): Clc1ccc(Nc2nnc(Cc3ccncc3)c3ccccc23)cc1
SNS-032 (0.05 µM): CC(C)(C)c1cnc(CSc2cnc(NC(=O)C3CCNCC3)s2)o1
L-779450 (1 µM): Oc1cc(-c2nc(-c3ccccc3)[nH]c2-c2ccncc2)ccc1Cl

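Human melanoma cell lines in 1,536-well plates were treated with two drugs together for 72 h, then fixed, stained and imaged. Values are the share of nuclei positive for cleaved PARP as a percentage of the same share in the DMSO control: 100 is the control level, higher means more apoptosis. Concentrations were fixed for each drug; these are the higher of two levels. These are primary screening values without error estimates. The marker varies much from line to line, for technical or biological reasons.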 Only some of the drugs and lines screened are listed, without regard to their results. A dash means that no value is listed here.

Pair,SK-MEL-28,WM3526,MeWo,IPC-298,WM115,A101D,SK-MEL-5,COLO 829,C32,A375
crizotinib + YM155,248,1500,649,443,770,64.2,1280,76.9,33.8,177
lestaurtinib + L-779450,88.9,1220,92.7,420,199,256,473,237,114,241
L-779450 + crizotinib,61.4,227,87.5,71.4,152,477,108,137,123,299
ENMD-2076 + bexarotene,72.5,106,103,132,147,64.8,147,143,500,16.7
L-779450 + vatalanib,110,179,184,77.4,91.9,330,214,147,301,353
cediranib + L-779450,114,269,122,163,324,118,252,176,149,134
bexarotene + cediranib,76.7,192,64.1,82.9,250,78.9,32.1,68.0,175,-
ENMD-2076 + YM155,224,258,242,82.7,583,132,1310,139,314,100
vatalanib + lestaurtinib,35.3,189,59.8,412,218,73.4,658,218,80.5,167
SNS-032 + crizotinib,403,177,115,66.9,942,76.5,292,84.8,432,-
bexarotene + L-779450,188,638,78.6,49.5,667,106,91.9,52.8,250,273
SNS-032 + ENMD-2076,267,74.8,99.8,222,343,71.3,173,51.4,34.8,-
crizotinib + cediranib,68.1,100,68.0,23.4,197,103,118,77.2,355,-
YM155 + bexarotene,255,154,155,151,141,229,358,113,40.0,93.9
vatalanib + YM155,92.0,173,107,466,111,87.8,517,105,235,365
cediranib + lestaurtinib,178,149,103,73.4,186,56.1,179,144,175,-
cediranib + ENMD-2076,79.1,131,82.9,66.3,287,83.7,115,119,123,-
crizotinib + bexarotene,131,166,126,142,229,223,304,132,301,40.2
ENMD-2076 + crizotinib,69.7,267,55.1,107,947,93.0,154,161,328,127
bexarotene + vatalanib,56.4,126,80.7,169,77.1,181,211,101,288,117
crizotinib + lestaurtinib,216,146,154,85.7,490,176,237,115,44.4,68.4
lestaurtinib + ENMD-2076,167,145,74.9,279,558,101,297,80.9,55.3,94.5
vatalanib + crizotinib,41.2,213,77.7,131,78.2,81.3,225,82.1,413,126
ENMD-2076 + L-779450,213,670,169,249,1120,179,240,250,438,388
L-779450 + SNS-032,277,350,36.0,60.8,410,90.2,106,88.1,108,149
cediranib + YM155,217,1470,355,61.8,87.7,135,2440,152,71.5,-
cediranib + SNS-032,319,152,143,49.2,263,202,56.6,104,65.9,-
ENMD-2076 + vatalanib,161,247,184,204,97.2,79.6,42.5,194,206,41.6
cediranib + vatalanib,107,119,147,144,47.3,74.6,72.9,166,127,-
SNS-032 + vatalanib,156,213,159,94.0,127,143,281,97.2,371,-
YM155 + L-779450,400,1330,91.6,87.2,204,367,657,134,112,722
bexarotene + SNS-032,81.5,110,102,34.6,56.4,33.1,115,114,34.8,-
YM155 + lestaurtinib,305,541,152,160,577,122,653,226,47.7,144
SNS-032 + YM155,434,3040,681,129,193,112,759,140,449,-
bexarotene + lestaurtinib,113,223,11.6,145,189,87.4,234,169,110,98.7

Some entries from above, unchanged:

Pair,SK-MEL-28,WM3526,MeWo,IPC-298,WM115,A101D,SK-MEL-5,COLO 829,C32,A375
L-779450 + vatalanib,110,179,184,77.4,91.9,330,214,147,301,353
L-779450 + SNS-032,277,350,36.0,60.8,410,90.2,106,88.1,108,149
SNS-032 + crizotinib,403,177,115,66.9,942,76.5,292,84.8,432,-